The source of these data is PubChem BioAssay AID2685 (National Center for Advancing Translational Sciences (NCATS), 2010).

SMILES strings stand for the structures. The list shows a part of the results. The main result of the screen is listed elsewhere. These columns were measured beside it and carry no call. Most of these compounds were active or inconclusive in the main read-out, so they are no random draw. The note in brackets gives the kind of curve behind each potency; many fits are weak.

The nature of this experiment: qHTS Assay for Lipid Storage Modulators in Drosophila S3 Cells.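 As to cell number change: cells counted by Cell Tracker Red CMTPX staining in the red channel.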 To be noted: BODIPY lipid droplet fluorescence, 18-24 h; for cell number change: measured here: cell count max response, cells fed with added oleic acid. Put shortly: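 Drosophila S3 cells got compounds at several concentrations plus oleic acid (400 uM solution). Laser-scanning cytometry with 488 nm excitation read lipid droplets at 500-530 nm and cells at 575-640 nm. Percent activity was relative to 20 uM Triacsin C.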
(In general: qHTS replaces the single test concentration by a dilution series.)

[1] abbreviates: measured here: cell number channel AC50, cells fed with added oleic acid.
[2] abbreviates: measured here: lipid fluorescence (Fed channel) AC50, cells fed with added oleic acid.

Regarding `C=CCn1c(C)cc(C(=O)CN2NS(=O)(=O)c3ccccc3C2=O)c1C`, the AC50 under setting [1] is 6.51 µM [rising, single point]. Take `O=C(CSc1nncs1)Nc1nnc(-c2ccccc2)o1`: the concentration at half-maximal activity (AC50) reads like this: under setting [1], 0.731 µM [falling, full curve, poor fit]; under setting [2], 0.58 µM [falling, full curve]. As to `CN(CC(=O)NCC(c1ccco1)N1CCCCC1)S(=O)(=O)c1ccc(Cl)cc1` (configuration not stated), the cell number change is -100%. In addition, the AC50 under setting [1] is 14.6 µM [falling, partial curve].

With `COCCCNC(=S)N(CCO)Cc1cc2cc3c(cc2[nH]c1=O)OCO3`, the cell number change was 2.12%. For the same compound, the AC50 under setting [2] was 0.146 µM [rising, full curve, poor fit]. For the compound `CCn1c(=N)n(CC(=O)c2ccc(Cl)c(Cl)c2)c2ccccc21`, the cell number change turned out to be 2.6%. With `COc1ccc(NS(=O)(=O)c2cc(NC(=O)C3CCCCC3)ccc2N2CCOCC2)cc1`, the cell number change was 32.7%. In addition, the AC50 under setting [1] is 5.8 µM [rising, partial curve]. Moreover, under setting [2], the AC50 is 1.46 µM [rising, partial curve]. As for `CCCCN(CC)C(=O)Cn1cnc2sc(C)c(S(=O)(=O)N3CCC(C)CC3)c2c1=O`, the cell number change came to 36.7%. Moreover, under setting [1], the AC50 was 18.4 µM [rising, partial curve, poor fit]. Besides, the concentration at half-maximal activity (AC50) under setting [2] was 11.6 µM [falling, partial curve]. `CCN(CC)S(=O)(=O)c1ccc(OC(C)C)c(NC(=O)c2c3c(nc4ccccc24)CCN(Cc2ccccc2)C3)c1`: the cell number change was 40.6%. The AC50 under setting [1] is 1.46 µM [rising, full curve, poor fit]. The AC50 under setting [2] was 1.84 µM [rising, full curve]. Consider `O=C(NCCSCc1ccco1)c1ccc(=O)[nH]c1`, for which the cell number change is -23.8%. Take `CCNc1nc(Oc2ccc(OC)cc2)cc(C(F)(F)F)n1`: the cell number change was -23.1%. Moreover, under setting [2], the AC50 was 18.4 µM [falling, single point]. As to `CCn1ccc(=O)c2cc3c(cc21)OCO3`, the cell number change worked out at 25.7%. In the case of `O=C(CCc1nnc2n(Cc3ccccc3)c(=O)c3ccccc3n12)NCCCN1CCCCC1`, the cell number change was -6.42%. Also, the AC50 under setting [2] was 7.31 µM [falling, partial curve, poor fit]. For `CCSC1=C(C#N)C2(CCCCC2)C2=C(CC(C)(C)CC2=O)N1`, the cell number change is 28.3%. Moreover, under setting [2], the AC50 was 29.1 µM [rising, single point]. As for `Cc1cc(-c2nnc3n2N=C(c2ccccc2)CS3)n[nH]1`, the cell number change came to 32.7%. Further, the AC50 under setting [2] is 0.731 µM [rising, partial curve, poor fit]. Take `COc1ccccc1CNC(=O)c1ccc2c(=O)n(CC3CCCO3)c(=S)[nH]c2c1` (configuration not stated): the cell number change is -6.67%. `N#Cc1ccccc1S(=O)(=O)N1CCN(C(=O)c2cn(-c3ccccc3)nc2-c2cccnc2)CC1`: the cell number change was 6.02%. Besides, the AC50 under setting [1] was 1.84 µM [falling, single point]. Under setting [2], the AC50 is 6.51 µM [falling, single point]. Regarding `COC(=O)c1scc(C)c1NC(=O)Nc1ccccc1`, the cell number change came to 6.19%. Also, the half-maximal activity concentration (AC50) under setting [1] was 5.17 µM [falling, partial curve]. Further, the AC50 under setting [2] is 3.26 µM [falling, partial curve]. As for `CCCC(C(=O)NCCc1ccc(S(N)(=O)=O)cc1)c1ccccc1` (configuration not stated), the cell number change stood at 1.32%. The AC50 under setting [2] was 0.398 µM [falling, single point]. As for `NNC(=O)CSc1c(-c2ccccc2)c2cc(Cl)ccc2[nH]c1=O`, the cell number change is 20.2%. For the compound `COCCNC(=O)c1oc2ccc3c(c2c1C)C(O)CC(C)(C)O3` (configuration not stated), the cell number change was 4.26%. With `CCn1c(=S)sc2c(=O)n(CC(=O)NC(C)CCc3ccccc3)c(C)nc21` (configuration not stated), the cell number change is -0.306%. Further, the concentration at half-maximal activity (AC50) under setting [2] is 32.6 µM [rising, single point].

As to `O=C(CSc1nnc(-c2ccco2)n1Cc1ccco1)Nc1ccccc1`, the cell number change is -0.209%. For the same compound, the AC50 under setting [2] was 0.517 µM [rising, full curve, poor fit]. `CCN1CCN(c2ccc(S(=O)(=O)N3CCCCC3)cc2NC(=O)c2cc3ccccc3o2)CC1`: the cell number change is -25%. Take `COc1ccc(CCC(=O)Nc2cc([N+](=O)[O-])ccc2OC)cc1`: the cell number change was 19%. In addition, the AC50 under setting [2] is 0.259 µM [rising, full curve].

Consider `Cc1ccsc1C(=O)OCC(=O)c1ccc[nH]1`, for which the cell number change was -4.89%. Further, under setting [2], the AC50 was 6.51 µM [falling, single point]. As to `O=C(NNC(=O)C1CC1c1ccccc1)c1ccccc1[N+](=O)[O-]` (configuration not stated), the cell number change is -17.8%. Moreover, under setting [2], the AC50 is 9.2 µM [rising, partial curve, poor fit]. Consider `CN(C)/C=C(\C(=O)c1ccccc1)c1nnnn1-c1ccc(F)cc1`, for which the cell number change was -6.93%. Under setting [1], the AC50 was 0.411 µM [falling, single point].

Take `COc1ccc(C(=O)Nc2ccc3ccccc3n2)cc1OC`: the cell number change is -26.3%. Also, the AC50 under setting [2] is 0.058 µM [falling, full curve, poor fit].

Consider `COc1ccc([C@@H]2[C@@H]3C(=O)N(C(C)(C)C)C(=O)[C@@H]3[C@]3(CC(C)C)C(=O)N(c4ccc(C(F)(F)F)cc4)C(=O)N23)cc1`, for which the AC50 under setting [2] is 29.1 µM [falling, single point].

`Cc1ccc(OCCNS(=O)(=O)c2ccc(Cl)cc2)cc1`: the cell number change was -34.2%. The AC50 under setting [1] is 29.1 µM [falling, single point]. Consider `O=C(N/N=C/c1ccco1)/C(=C/c1cccc([N+](=O)[O-])c1)NC(=O)c1ccccc1`, for which the cell number change was -8.95%. Besides, the AC50 under setting [2] is 0.326 µM [falling, full curve, poor fit]. For `CCCCC[C@]12Cc3cc(OC)c(OC)cc3[C@H](O1)c1c(cc(C)oc1=O)O2`, the cell number change was determined as 1.87%. Also, the half-maximal activity concentration (AC50) under setting [2] was 5.31 µM [rising, single point]. With `Cc1[nH]c2ccccc2c1C(=O)CN1C(=O)NC(C)(c2ccc(Cl)cc2Cl)C1=O` (configuration not stated), the cell number change is -15.2%. Also, the AC50 under setting [2] is 29.1 µM [falling, single point]. Take `Fc1cccc(F)c1-n1c(CN2CCCCC2)csc1=S`: the cell number change is -59.7%. For the same compound, the AC50 under setting [1] is 29.1 µM [falling, single point]. Besides, the AC50 under setting [2] was 16.4 µM [falling, single point]. In the case of `Cc1cc(NC(=O)CSc2nc3ccccc3n2CC(=O)N2CCCCC2)no1`, the AC50 was 2.06 µM [rising, partial curve] under setting [1] and 3.26 µM [rising, partial curve] under setting [2].

Turning to `O=C(COc1ccc(Br)cc1)Nc1ccc(-c2nnc(-c3ccco3)o2)cc1`, the cell number change is -112%. Also, the AC50 under setting [1] is 29.1 µM [falling, single point]. Moreover, under setting [2], the AC50 was 29.1 µM [falling, single point]. For the compound `CC(C)(C)C(=O)NCC12C=CC(O1)C1C(=O)N(c3ccccc3)C(=O)C12` (configuration not stated), under setting [2], the AC50 is 6.51 µM [falling, single point]. Still for that read-out and setting: with `COc1ccc(S(=O)(=O)N(C)c2ccc(C(=O)N3CCCC3)cc2)cc1OC` the figure was 0.206 µM [falling, single point].

As to `O=C(CN1CCN(c2ccccc2F)CC1)NCc1ccccc1`, the cell number change is 9.34%. Besides, the concentration at half-maximal activity (AC50) under setting [2] was 4.11 µM [falling, single point]. `CCN(CC)S(=O)(=O)c1ccc(C(=O)NCCCn2ccnc2)cc1`: the cell number change was -0.24%. For the same compound, the AC50 under setting [2] is 6.51 µM [falling, single point]. In the case of `Cn1c(=O)c2c(nc(NCCNC(=O)c3ccco3)n2Cc2ccc(F)cc2)n(C)c1=O`, the cell number change was determined as 6.41%. In addition, the AC50 under setting [1] was 0.082 µM [rising, full curve, poor fit]. Consider `CCn1c(CNC(=O)c2cc(OC)c(OC)c(OC)c2)cc2cc(C)ccc21`, for which, under setting [2], the AC50 was 6.51 µM [rising, single point]. For the compound `COc1ccc(N2C(=O)c3ccccc3C(C)(C)C2=O)cc1`, the cell number change came to 2.17%. In addition, the concentration at half-maximal activity (AC50) under setting [2] was 6.51 µM [falling, partial curve, poor fit]. As for `CCOCCCNS(=O)(=O)c1ccc(NC(=O)c2ccccc2)cc1`, under setting [2], the AC50 is 29.1 µM [rising, single point]. Still for that read-out and setting: under `O=C(CN1C(=O)S/C(=C\c2ccccc2)C1=O)NC1CCS(=O)(=O)C1` (configuration not stated) stands 29.1 µM [falling, single point]. As for `Cc1ccc(-c2onc3ccc(Cl)cc23)cc1`, the cell number change is -15.4%. Besides, the AC50 under setting [2] was 6.51 µM [falling, partial curve, poor fit]. Regarding `CCN(Cc1ccccc1)C(=O)c1oc2ccc(C)cc2c1C`, the cell number change is -19.2%. In the case of `CCOC(=O)c1cccc(NC(=O)CCn2cccc2)c1`, the cell number change was -16.9%. Moreover, under setting [1], the AC50 is 0.00461 µM [falling, full curve, poor fit]. For `O=C(OCC(=O)N1CCN(C(=O)c2ccco2)CC1)c1ccccc1C(=O)c1ccccc1`, the cell number change is -12.5%. Further, under setting [2], the half-maximal activity concentration (AC50) was 0.13 µM [falling, full curve]. With `Cc1cc(=O)[nH]c(SCC(=O)c2ccc(O)c(O)c2)n1`, under setting [2], the AC50 is 5.17 µM [rising, partial curve, poor fit].

As to `Cc1ccc(C2=NN(C(=O)c3ccco3)C(O)(C(F)(F)F)C2)cc1` (configuration not stated), the cell number change is -30.8%. Also, under setting [1], the AC50 was 13 µM [falling, partial curve]. The AC50 under setting [2] was 5.8 µM [falling, full curve]. Regarding `Cn1c(-c2ccccc2)cc2ccccc21`, the AC50 under setting [2] was 29.1 µM [rising, single point]. For `COC(=O)[C@@H]1CC[C@H](C)[C@@H](c2ccc(C)cc2)N1C(=O)c1ccc(/C=N/O[C@@H](C)c2cn([C@H](CO)Cc3ccccc3)nn2)cc1`, the cell number change was -0.308%. The AC50 under setting [1] is 3.26 µM [falling, single point]. For the same compound, the AC50 under setting [2] was 6.51 µM [falling, single point]. For the compound `COc1nn(-c2ccccc2)c(=O)c(Cl)c1Cl`, the AC50 under setting [2] was 13 µM [falling, partial curve]. Regarding `COc1ccc(S(=O)(=O)N(C)C)cc1NC(C)C(=O)Nc1cccc(C#N)c1` (configuration not stated), the cell number change was 44.5%. The half-maximal activity concentration (AC50) under setting [1] is 2.31 µM [rising, partial curve]. For the same compound, the AC50 under setting [2] is 18.4 µM [rising, single point]. In the case of `CS(=O)(=O)c1ccc(-c2cccc(NC(=O)COc3ccccc3)c2)nn1`, the cell number change was 20.9%. Besides, under setting [2], the AC50 was 4.61 µM [falling, full curve].

Regarding `C=CCc1ccc(OCC(O)CN2CCN(Cc3ccc(Cl)cc3)CC2)c(OC)c1` (configuration not stated), the cell number change is -82.3%. Also, the AC50 under setting [1] was 18.4 µM [falling, single point]. The AC50 under setting [2] is 25.9 µM [falling, partial curve].

In general, AC50 refers to the concentration at which the activity in the assay is half-maximal.
